For the test, the target named is T1, pea apyrase psNTP9 (PS), 4Myc-tagged, expressed in Arabidopsis seedlings (pea) (UniProt P52914).
T1 sequence: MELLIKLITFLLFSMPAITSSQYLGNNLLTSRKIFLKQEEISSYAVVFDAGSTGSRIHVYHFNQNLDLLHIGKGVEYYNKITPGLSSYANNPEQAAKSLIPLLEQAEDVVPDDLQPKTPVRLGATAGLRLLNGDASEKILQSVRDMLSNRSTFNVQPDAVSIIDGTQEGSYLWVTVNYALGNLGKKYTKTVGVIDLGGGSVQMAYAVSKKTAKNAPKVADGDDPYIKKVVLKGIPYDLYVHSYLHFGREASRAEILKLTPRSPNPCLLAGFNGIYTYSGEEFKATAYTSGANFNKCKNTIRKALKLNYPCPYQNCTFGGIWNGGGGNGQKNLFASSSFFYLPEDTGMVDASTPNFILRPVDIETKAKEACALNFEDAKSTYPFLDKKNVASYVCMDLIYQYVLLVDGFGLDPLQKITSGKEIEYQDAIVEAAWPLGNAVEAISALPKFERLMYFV
Put plainly: affinity purification with mass spectrometry; extracts of 7-day-old Arabidopsis seedlings (50 mM Tris pH 7.5, 150 mM NaCl, 1 mM EDTA, 0.1% Tween-20) incubated with EZview Red Anti-c-Myc Affinity Gel for 1 h at 4 °C, washed with TBS-T, eluted with 0.2 M glycine pH 2.6; LC-MS; hits also found in Columbia control seedlings discarded.

This passage reports binding results from article PMC12656381.

These are yes or no findings as the source states them, for the method shown. Binding seen in cells or lysates may run through a third protein. These calls come from enrichment with a bait or labelling near it, and not all partners need be listed. Tags and fused reporters may be left off the sequences shown.

B1: Scarecrow-like protein 30 (SCL30) (protein, UniProt Q9SNB8 1-583)
chain: MDAILPVPVDGFRFDTGSGSCCKPRNNLESGTTNRFTCFNESESQSNPSPTESKVCSDYLPVFKYINDMLMEEDLEGQSCMLEDSLALQAAERSFFEVLQDQTPISGDLEDGSLGNFSSITSLHQPEVSEESTRRYRHRDDDEDDDLESGRKSKLPAISTVDELAEKFEEVLLVCQKNDQGEATEKKTRHVKGSSNRYKQQKSDQPVDMRNLLMQCAQAVASFDQRRAFEKLKEIREHSSRHGDATQRLGYHFAEALEARITGTMTTPISATSSRTSMVDILKAYKGFVQACPTLIMCYFTANRTINELASKATTLHIIDFGILYGFQWPCLIQALSKRDIGPPLLRVTGIELPQSGFRPSERVEETGRRLKRFCDKFNVPFEYSFIAKNWENITLDDLVINSGETTVVNCILRLQYTPDETVSLNSPRDTALKLFRDINPDLFVFAEINGTYNSPFFLTRFREALFHCSSLFDMYETTLSEDDNCRTLVERELIIRDAMSVIACEGSERFARPETYKQWQVRILRAGFRPAKLSKQIVKDGKEIVKERYHKDFVIDNDNHWMFQGWKGRVLYAVSCWKPAKK
Take B1: the binding entry is “binds”.
